Measured values from the supplement of paper PMC12067093, “Discovery and optimisation of a covalent ligand for TRIM25 and its application to targeted protein ubiquitination” (Chemical Science, 2025).
The list shows a part of the results.

Sequences of proteins named here, by UniProt entry; tags and fusion partners are left off. A change or cut given only in a name is not applied to a line headed by its entry.
UniProt Q63HN8: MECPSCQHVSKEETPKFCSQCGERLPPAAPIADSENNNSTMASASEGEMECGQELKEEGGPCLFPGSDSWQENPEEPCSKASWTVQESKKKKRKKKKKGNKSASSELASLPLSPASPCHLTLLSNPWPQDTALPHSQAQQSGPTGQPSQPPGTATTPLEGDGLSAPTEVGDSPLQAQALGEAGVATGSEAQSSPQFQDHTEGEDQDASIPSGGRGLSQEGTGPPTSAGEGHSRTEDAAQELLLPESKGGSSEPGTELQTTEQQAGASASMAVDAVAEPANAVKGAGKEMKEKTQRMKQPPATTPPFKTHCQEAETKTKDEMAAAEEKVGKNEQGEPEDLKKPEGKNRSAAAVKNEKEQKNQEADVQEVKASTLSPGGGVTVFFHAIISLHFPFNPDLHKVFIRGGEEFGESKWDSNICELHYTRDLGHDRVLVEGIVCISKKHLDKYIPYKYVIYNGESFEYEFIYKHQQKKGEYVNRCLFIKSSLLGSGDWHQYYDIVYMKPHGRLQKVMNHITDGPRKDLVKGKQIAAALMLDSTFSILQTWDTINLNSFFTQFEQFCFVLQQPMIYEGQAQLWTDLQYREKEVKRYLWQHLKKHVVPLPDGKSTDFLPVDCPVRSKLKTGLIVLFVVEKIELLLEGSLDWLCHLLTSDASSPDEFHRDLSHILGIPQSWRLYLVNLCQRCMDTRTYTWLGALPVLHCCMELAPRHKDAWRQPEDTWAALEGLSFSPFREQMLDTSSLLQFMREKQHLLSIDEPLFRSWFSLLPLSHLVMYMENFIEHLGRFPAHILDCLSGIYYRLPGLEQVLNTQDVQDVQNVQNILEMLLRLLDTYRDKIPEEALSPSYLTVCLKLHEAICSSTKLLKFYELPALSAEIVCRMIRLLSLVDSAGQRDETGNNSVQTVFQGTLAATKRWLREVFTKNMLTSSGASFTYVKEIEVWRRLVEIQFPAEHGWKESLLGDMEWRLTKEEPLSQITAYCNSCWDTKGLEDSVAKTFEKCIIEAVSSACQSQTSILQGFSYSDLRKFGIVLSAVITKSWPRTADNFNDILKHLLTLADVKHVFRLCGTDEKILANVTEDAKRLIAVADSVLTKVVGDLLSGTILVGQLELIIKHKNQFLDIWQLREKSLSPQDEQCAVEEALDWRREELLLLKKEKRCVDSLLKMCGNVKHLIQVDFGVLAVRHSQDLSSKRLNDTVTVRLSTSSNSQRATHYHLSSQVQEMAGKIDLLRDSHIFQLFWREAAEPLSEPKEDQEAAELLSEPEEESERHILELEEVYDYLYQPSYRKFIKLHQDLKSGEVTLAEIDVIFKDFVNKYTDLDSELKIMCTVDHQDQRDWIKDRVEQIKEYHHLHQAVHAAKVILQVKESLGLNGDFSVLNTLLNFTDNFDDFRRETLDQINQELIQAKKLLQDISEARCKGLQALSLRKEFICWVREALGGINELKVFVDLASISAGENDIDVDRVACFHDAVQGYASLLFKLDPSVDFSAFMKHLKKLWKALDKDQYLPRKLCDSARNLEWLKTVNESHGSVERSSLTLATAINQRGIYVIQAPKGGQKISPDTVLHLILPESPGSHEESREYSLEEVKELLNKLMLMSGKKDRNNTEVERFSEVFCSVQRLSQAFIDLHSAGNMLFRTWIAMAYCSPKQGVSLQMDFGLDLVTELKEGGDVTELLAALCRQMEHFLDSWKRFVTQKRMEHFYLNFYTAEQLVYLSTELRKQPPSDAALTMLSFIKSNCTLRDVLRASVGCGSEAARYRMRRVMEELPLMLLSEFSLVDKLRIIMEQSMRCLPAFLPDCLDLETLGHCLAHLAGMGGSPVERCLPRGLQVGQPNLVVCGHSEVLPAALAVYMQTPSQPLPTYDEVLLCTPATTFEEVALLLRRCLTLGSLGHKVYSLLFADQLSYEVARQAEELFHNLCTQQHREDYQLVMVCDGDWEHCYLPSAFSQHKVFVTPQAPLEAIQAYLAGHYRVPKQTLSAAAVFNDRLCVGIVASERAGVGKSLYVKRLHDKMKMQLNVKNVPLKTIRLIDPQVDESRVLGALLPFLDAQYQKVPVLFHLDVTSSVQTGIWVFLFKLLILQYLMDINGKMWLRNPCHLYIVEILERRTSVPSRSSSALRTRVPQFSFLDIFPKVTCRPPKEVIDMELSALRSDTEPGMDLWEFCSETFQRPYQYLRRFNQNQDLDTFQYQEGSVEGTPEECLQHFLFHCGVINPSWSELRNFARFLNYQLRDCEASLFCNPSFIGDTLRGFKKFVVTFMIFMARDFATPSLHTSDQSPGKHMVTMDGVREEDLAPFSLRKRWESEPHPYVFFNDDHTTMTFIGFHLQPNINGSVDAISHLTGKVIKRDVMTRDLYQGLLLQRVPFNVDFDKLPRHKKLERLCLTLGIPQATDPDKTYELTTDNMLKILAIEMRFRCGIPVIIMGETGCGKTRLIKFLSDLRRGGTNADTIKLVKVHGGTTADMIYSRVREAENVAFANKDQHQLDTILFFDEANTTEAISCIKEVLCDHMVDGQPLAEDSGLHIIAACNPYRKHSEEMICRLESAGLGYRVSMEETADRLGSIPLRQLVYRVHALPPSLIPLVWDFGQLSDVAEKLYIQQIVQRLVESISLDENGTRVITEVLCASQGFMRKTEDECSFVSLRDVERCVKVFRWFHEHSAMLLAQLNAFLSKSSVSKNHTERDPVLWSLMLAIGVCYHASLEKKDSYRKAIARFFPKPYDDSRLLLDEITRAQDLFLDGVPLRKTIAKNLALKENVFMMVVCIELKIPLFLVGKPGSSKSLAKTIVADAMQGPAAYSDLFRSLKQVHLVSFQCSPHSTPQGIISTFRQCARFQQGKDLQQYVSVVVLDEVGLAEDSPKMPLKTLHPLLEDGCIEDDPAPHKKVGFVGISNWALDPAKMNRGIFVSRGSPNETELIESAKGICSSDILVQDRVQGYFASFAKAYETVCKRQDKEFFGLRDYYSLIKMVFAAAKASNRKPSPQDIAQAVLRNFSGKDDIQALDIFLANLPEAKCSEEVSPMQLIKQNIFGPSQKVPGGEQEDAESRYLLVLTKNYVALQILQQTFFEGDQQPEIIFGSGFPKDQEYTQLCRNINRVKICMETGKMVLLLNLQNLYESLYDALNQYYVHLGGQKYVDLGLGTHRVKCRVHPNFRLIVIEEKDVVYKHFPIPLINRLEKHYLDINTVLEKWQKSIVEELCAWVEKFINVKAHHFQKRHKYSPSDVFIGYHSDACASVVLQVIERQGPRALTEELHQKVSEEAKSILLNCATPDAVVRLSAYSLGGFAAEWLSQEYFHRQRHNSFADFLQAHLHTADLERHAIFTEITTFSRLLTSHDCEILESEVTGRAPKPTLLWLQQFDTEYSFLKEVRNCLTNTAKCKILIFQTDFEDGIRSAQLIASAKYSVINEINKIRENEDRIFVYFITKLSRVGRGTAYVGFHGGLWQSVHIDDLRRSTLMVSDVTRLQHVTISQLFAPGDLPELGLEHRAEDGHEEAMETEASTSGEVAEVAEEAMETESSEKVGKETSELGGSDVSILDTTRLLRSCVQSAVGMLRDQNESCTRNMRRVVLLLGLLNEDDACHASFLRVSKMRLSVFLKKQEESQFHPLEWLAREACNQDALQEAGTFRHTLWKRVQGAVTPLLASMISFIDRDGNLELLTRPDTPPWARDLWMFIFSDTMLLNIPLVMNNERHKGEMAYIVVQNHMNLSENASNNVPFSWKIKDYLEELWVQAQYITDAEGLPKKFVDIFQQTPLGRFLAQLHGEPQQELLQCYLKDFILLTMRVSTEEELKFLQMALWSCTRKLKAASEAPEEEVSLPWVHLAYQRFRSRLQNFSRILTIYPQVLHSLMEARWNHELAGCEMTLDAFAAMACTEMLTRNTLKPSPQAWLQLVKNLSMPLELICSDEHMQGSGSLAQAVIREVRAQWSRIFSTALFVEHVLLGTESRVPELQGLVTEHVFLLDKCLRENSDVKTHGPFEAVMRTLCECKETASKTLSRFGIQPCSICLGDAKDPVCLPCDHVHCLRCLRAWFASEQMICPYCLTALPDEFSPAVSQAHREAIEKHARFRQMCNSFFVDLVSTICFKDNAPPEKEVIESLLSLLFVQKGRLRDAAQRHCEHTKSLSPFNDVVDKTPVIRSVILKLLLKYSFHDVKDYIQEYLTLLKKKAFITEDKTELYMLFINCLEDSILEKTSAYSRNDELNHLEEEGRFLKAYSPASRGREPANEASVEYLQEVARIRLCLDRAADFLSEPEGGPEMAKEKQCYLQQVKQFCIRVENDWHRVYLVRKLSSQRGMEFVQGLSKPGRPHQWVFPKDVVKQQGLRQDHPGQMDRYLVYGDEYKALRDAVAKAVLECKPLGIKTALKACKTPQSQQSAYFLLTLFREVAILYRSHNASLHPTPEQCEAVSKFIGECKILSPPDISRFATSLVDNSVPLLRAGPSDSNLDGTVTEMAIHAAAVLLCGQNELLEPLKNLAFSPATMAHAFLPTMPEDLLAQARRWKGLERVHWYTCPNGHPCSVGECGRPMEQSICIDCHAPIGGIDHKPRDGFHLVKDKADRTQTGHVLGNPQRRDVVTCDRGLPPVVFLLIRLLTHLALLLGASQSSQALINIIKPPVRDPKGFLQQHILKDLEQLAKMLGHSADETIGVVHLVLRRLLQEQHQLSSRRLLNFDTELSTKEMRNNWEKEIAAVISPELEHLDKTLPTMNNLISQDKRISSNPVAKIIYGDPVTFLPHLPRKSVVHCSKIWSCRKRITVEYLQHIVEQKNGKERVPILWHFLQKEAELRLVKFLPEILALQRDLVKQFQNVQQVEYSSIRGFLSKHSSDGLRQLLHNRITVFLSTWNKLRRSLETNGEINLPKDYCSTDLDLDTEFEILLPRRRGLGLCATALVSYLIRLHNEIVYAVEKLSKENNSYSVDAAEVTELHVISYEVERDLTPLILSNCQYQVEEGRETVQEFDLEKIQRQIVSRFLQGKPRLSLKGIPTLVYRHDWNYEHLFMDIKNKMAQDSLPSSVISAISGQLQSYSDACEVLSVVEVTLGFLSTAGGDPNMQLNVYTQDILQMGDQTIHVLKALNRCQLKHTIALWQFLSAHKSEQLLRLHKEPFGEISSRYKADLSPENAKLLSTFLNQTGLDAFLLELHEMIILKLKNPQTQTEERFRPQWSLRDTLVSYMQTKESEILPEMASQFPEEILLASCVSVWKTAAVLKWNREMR
UniProt P13489: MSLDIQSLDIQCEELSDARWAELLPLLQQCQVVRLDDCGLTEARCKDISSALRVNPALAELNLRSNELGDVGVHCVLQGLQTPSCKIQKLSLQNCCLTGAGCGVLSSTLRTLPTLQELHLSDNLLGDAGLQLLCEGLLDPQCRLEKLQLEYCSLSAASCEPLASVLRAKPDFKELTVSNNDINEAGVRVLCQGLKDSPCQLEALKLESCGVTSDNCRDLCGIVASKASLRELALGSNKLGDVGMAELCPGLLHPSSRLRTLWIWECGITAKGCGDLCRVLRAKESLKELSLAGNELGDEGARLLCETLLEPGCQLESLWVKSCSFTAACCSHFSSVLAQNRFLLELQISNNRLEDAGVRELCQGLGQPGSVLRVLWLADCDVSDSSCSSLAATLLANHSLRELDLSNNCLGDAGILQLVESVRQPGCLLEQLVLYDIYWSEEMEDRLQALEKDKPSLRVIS
UniProt O43148, whole entry, looked up: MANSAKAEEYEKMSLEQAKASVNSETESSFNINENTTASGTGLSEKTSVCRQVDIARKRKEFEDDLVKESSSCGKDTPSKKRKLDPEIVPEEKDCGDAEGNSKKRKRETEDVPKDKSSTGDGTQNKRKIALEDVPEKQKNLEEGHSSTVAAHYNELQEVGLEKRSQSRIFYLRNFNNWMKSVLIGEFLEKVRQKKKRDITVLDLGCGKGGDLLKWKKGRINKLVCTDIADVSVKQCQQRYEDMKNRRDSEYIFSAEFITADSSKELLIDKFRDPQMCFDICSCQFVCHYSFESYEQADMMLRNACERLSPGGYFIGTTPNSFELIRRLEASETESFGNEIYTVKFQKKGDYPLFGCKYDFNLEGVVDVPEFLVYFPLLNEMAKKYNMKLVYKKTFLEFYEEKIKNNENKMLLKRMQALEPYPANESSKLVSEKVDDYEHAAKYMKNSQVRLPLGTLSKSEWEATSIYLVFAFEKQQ
UniProt Q9H4P4: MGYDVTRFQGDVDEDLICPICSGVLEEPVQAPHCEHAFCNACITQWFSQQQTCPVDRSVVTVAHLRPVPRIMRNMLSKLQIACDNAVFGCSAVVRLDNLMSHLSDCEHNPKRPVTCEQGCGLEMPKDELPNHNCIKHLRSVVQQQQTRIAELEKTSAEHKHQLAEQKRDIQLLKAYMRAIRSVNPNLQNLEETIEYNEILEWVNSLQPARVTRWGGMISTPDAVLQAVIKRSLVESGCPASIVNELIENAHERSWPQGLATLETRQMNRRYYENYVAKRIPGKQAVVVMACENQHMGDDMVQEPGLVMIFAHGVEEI

Compound: Cc1cc(ccc1-c1ccccc1)C(=O)N1CCCN(CC1)C(=O)CCl [compound 10]
Test: probe-labelled cysteine peptide fold change vs DMSO (competition) (log2 fold change); higher = less target engagement (more negative = stronger competition)
Details: THP-1, incubation time: 4 h
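Also: competitive profiling in live THP-1 cells: cysteine peptides tagged with an iodoacetamide desthiobiotin (IA-DTB) probe, intensity after compound treatment relative to DMSO-treated cells.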

Target	probe-labelled cysteine peptide fold change (10 µM)	probe-labelled cysteine peptide fold change (50 µM)
RPAIN_Q86UA6_187_ACLEGSINEHSAHCPHTPEFSVTGGTEEK (UniProt Q86UA6)	0.0206	-0.19
RNF213_Q63HN8_700_TYTWLGALPVLHCCMELAPR (UniProt Q63HN8)	0.146	-0.538
RPL8_P62917_90_RTELFIAAEGIHTGQFVYCGKK (UniProt P62917)	-0.0864	-0.389
RNH1_P13489_362_ELCQGLGQPGSVLR (UniProt P13489)	0.185	0.134
RPS11_P62280_116_NMSVHLSPCFR (UniProt P62280)	0.12	-0.0624
RPL11_P62913_150_TGCIGAK (UniProt P62913)	-0.0968	-0.152
ROCK2_O75116_1277_GHEFIPTLYHFPTNCEACMK (UniProt O75116)	-0.0306	0.0283
RNF213_Q63HN8_3084_DQEYTQLCR (UniProt Q63HN8)	0.0389	-0.0867
RNPEP_Q9H4A4_123_ERPGSEEPPAEPVSFYTQPFSHYGQALCVSFPQPCR (UniProt Q9H4A4)	0.0601	-0.338
RNMT_O43148_225_LVCTDIADVSVK (UniProt O43148)	-0.0542	0.135
RPL8_P62917_90_RTELFIAAEGIHTGQFVYCGK (UniProt P62917)	0.00526	0.00527
RPL5_P46777_76_IEGDMIVCAAYAHELPK (UniProt P46777)	0.0933	0.199
RPL4_P36578_250_FCIWTESAFRK (UniProt P36578)	-0.0922	-0.377
ROCK2_O75116_1315_KEEIIAPCK (UniProt O75116)	0.0773	0.0953
RNH1_P13489_85_SNELGDVGVHCVLQGLQTPSCK (UniProt P13489)	0.00935	-0.0856
RNPEP_Q9H4A4_69_CLEPEGAAELR (UniProt Q9H4A4)	0.063	0.0983
RNF41_Q9H4P4_238_SLVESGCPASIVNELIENAHER (UniProt Q9H4P4)	0.0275	0.0571
RNF213_Q63HN8_2536_HSEEMICR (UniProt Q63HN8)	-0.102	0.00526
RPN1_P04843_545_TEGSDLCDR (UniProt P04843)	-0.0249	0.227
RNH1_P13489_266_TLWIWECGITAK (UniProt P13489)	0.0412	-0.0514
RNH1_P13489_330_SCSFTAACCSHFSSVLAQNR (UniProt P13489)	0.0965	0.109
RPL7A_P62424_199_TCTTVAFTQVNSEDK (UniProt P62424)	0.101	0.169

Single records, as listed above.
RNF213_Q63HN8_3084_DQEYTQLCR (UniProt Q63HN8) as listed: probe-labelled cysteine peptide fold change (10 µM) = 0.0389; probe-labelled cysteine peptide fold change (50 µM) = -0.0867
RPL11_P62913_150_TGCIGAK (UniProt P62913) as listed: probe-labelled cysteine peptide fold change (10 µM) = -0.0968; probe-labelled cysteine peptide fold change (50 µM) = -0.152
